# The list shows a part of the results. Single values are uncertain, as repeats are few or missing.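 The assay uses a mixed pool of 41 HAP1 clones in which 61 cancer-associated proteins bear intron-inserted fluorescent tags, and clones are distinguished by image pattern. Results are compared against DMSO-treated control wells, and the BRD4 degrader dBET6 is the positive control.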
# Target: BRD4 (intron 10 mScarlet tag, HAP1) (UniProt O60885)
# Assay: BRD4 median nuclear fluorescence intensity change vs DMSO (log2 fold change); higher = more BRD4 protein
# Details: 6 h
row,Structure (SMILES),BRD4 median nuclear fluorescence intensity change (log2)
1,CCOc1ccccc1-n1c(C(C)N2CCN(C(=O)COc3ccc(Cl)cc3)CC2)nc2ccccc2c1=O (centres undefined) [erastin] (10 µM),-0.202
2,C/C=C(/C)C(=O)O[C@H]1C(C)=C2[C@H]([C@@H]1OC(=O)CCCCCCC)[C@@](C)(OC(C)=O)C[C@H](OC(=O)CCC)[C@@]1(O)[C@H]2OC(=O)[C@@]1(C)O [thapsigargin] (10 µM),-0.19
3,CN[C@@H]1C[C@H]2O[C@@](C)([C@@H]1OC)n1c3ccccc3c3c4c(c5c6ccccc6n2c5c31)C(=O)NC4 [staurosporine] (10 µM),0.0944
4,CN(C)C(=S)SSC(=S)N(C)C (1 µM),0.125
